Test results: publication PMC5910589
No constants are given. Whether binding was seen depends on the method and setting. For part of these data: In cells and extracts the contact can be indirect. Some binding calls cover weakened binding; strength is not graded here.

By UniProt entry, the sequences of proteins in these tests, tags left out.
UniProt Q86523: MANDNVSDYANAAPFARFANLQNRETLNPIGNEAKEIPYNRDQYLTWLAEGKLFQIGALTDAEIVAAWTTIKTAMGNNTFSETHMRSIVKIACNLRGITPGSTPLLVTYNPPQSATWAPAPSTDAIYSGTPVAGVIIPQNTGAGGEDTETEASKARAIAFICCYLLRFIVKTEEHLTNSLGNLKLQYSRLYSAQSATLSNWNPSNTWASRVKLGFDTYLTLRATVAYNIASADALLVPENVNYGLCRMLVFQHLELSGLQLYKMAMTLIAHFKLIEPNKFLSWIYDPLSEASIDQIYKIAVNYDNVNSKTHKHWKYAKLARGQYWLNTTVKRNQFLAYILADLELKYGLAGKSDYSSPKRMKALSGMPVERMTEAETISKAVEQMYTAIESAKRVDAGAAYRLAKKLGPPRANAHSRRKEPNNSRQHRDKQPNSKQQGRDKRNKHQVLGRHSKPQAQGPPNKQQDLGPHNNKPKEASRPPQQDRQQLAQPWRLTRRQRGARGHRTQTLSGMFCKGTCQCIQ
UniProt O70790: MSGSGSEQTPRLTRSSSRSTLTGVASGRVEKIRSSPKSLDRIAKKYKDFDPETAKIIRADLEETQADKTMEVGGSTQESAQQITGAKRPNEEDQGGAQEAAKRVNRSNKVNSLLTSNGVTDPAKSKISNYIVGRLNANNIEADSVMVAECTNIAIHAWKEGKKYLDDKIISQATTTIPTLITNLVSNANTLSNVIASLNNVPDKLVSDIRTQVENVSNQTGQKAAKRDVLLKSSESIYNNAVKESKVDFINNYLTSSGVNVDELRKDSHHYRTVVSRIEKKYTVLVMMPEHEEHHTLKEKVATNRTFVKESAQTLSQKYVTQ

What was measured:
[1] = target: Rice yellow stunt virus (RYSV) nucleoprotein (N), expressed in E. coli for the GST pull-down (Rice yellow stunt virus) (UniProt Q86523); test: pull-down; self-interaction: GST-N or GST-P from E. coli BL21 lysate on glutathione-Sepharose beads (3 h), incubated with lysate of His-N or His-P (4 h); western blot with antibodies to GST and His tags
[2] = target: Rice yellow stunt virus (RYSV) nucleoprotein (N), yeast two-hybrid fusion (Rice yellow stunt virus) (UniProt Q86523); test: two-hybrid; Matchmaker Gal4 Two-Hybrid System 3 (Clontech), bait in pGBKT7, prey in pGADT7, yeast AH109, growth on SD/-Leu/-Trp/-His/-Ade with X-alpha-Gal
[3] = target: Rice yellow stunt virus (RYSV) nucleoprotein (N), expressed in E. coli for the GST pull-down (Rice yellow stunt virus) (UniProt Q86523); test: pull-down; GST-N or GST from E. coli BL21 lysate immobilised on glutathione-Sepharose beads (3 h), incubated with His-P (4 h; 'purified His-P protein' by the results, lysate by the methods); western blot with antibodies to GST and His tags; only the binder purified
[4] = target: Rice yellow stunt virus (RYSV) phosphoprotein (P), expressed in E. coli for the GST pull-down (Rice yellow stunt virus) (UniProt O70790); test: pull-down; self-interaction: GST-N or GST-P from E. coli BL21 lysate on glutathione-Sepharose beads (3 h), incubated with lysate of His-N or His-P (4 h); western blot with antibodies to GST and His tags
[5] = target: Rice yellow stunt virus (RYSV) phosphoprotein (P), yeast two-hybrid fusion (Rice yellow stunt virus) (UniProt O70790); test: two-hybrid; Matchmaker Gal4 Two-Hybrid System 3 (Clontech), bait in pGBKT7, prey in pGADT7, yeast AH109, growth on SD/-Leu/-Trp/-His/-Ade with X-alpha-Gal

In the case of “Rice yellow stunt virus (RYSV) nucleoprotein (N), expressed in E. coli for the GST pull-down (from UniProt Q86523 1-521)”, the binding [1] is reported as “binds”.
“Rice yellow stunt virus (RYSV) nucleoprotein (N), yeast two-hybrid fusion (from UniProt Q86523 1-521)” was tested, and the binding [2] was “binds”.
In the case of “Rice yellow stunt virus (RYSV) phosphoprotein (P), expressed in E. coli for the GST pull-down (from UniProt O70790 1-322)”, the binding [3] is reported as “binds” and the binding [4] is reported as “binds”.
For “Rice yellow stunt virus (RYSV) phosphoprotein (P), yeast two-hybrid fusion (from UniProt O70790 1-322)”, the binding [2] was “binds” and the binding [5] was “binds”.
